One molecule from patent US4530930A, “Antimicrobial 1-ethyl-6,8-difluoro-1,4-dihydro-7-(1-imidazolyl)-4-oxoquinoline-3-carbo xylic acid derivatives” (Kanebo, Ltd., priority 1982, dated 1985) can be followed below.

Data set [1] in a line: Bioavailability in oral administration in rats. The note with it: rat, in vivo. Further details: species or system Wistar-strain male rats; AUC at 4 h: concentration or dose not given beside the values. The protocol: Each of the test compounds was suspended in a 0.5% sodium carboxymethylcellulose to prepare a suspension having a concentration of 5 mg/ml of the test compound.
Wistar-strain male rats (weighing 160 g ±20 g, three per group) were used. The suspension was orally administered to rats fasted 16 hours. 30, 60, 120, and 240 minutes after the administration of the test compound, blood was taken out from the rats. The blood was centrifuged at 3,000 rpm for 20 minutes to obtain a plasma sample. In the same manner as described in Experiment 2, the concentration (μg/ml) of test compound in plasma and also AUC (μg.hr/ml) were measured.

Data set [2] can be described thus: in vivo. Conditions: mouse, po, mice, one week, Weil method. The protocol: (§1) The acute toxicities in oral administration and intravenous injection of the test compounds were tested as follows:
In oral administration: To ddY-strain male mice (weighing 20-25 g, five per group) was administered orally a suspension of each test compound in a 0.5% sodium carboxymethylcellulose. One week after the administration of the test compound, the 50% lethal dose (LD50) was determined in accordance with the Weil method [cf. J. Biometric Soc., 8, 249 (1959)].

In data set [3] the test system is Serratia marcescens IAM 1184. The data set can be described thus: MIC. Conditions: IAM1184, gram negative. In kind it is cell-based. The protocol:
In accordance with the method as disclosed in Chemotherapy, Vol. 29, pages 76-79 (1981), MIC (μg/ml) of each test compound was measured.

Data set [4] is described as follows: Bioavailability in oral administration in mice. The arrangement: species or system ddY-strain male mice. The note with it: mouse, in vivo, oral 50 mg/kg. The protocol: Each of the test compounds was suspended in a 0.5% sodium carboxymethylcellulose to prepare a suspension having a concentration of 5 mg/ml of the compound.
ddY-strain male mice (5 week old, weighing 22 to 25 g, three per group) were used. The suspension was orally administered to mice fasted for 16 hours. The dose of the test compound was adjusted to 50 mg/kg of body weight of animal. 30, 60, 120, and 240 minutes after the administration of the test compound, blood was taken out from each mouse, and the blood sample thus obtained was centrifuged at 3,000 rpm for 20 minutes to obtain a serum sample.

Data set [5] in a line: in vivo. Conditions: mouse, iv, mice, one week, Weil method. The protocol: as §1
In intravenous administration: Each of the test compounds was dissolved in 1N aqueous sodium hydroxide solution and thereto was added a phosphoric acid-saline buffer (pH 7.2) to prepare a test solution. The test solution was intravenously injected to ddy-strain male mice (weighing 20-25 g, five per group). One week after the administration of the test solution, the LD50 was determined in accordance with Weil method.

≈ marks a conversion by molar mass, not a printed value.

As a reminder, the AUC is concentration integrated over time. The term LD50 denotes the dose at which mortality reaches 50%. Broadly, the MIC is the lowest concentration found to suppress growth.

For `CCn1cc(C(=O)O)c(=O)c2cc(F)c(N3CCN(C)CC3)cc21` [B, 1-ethyl-1,4-dihydro-6-fluoro-7-[1-(4-methylpiperazinyl)]-4-oxoquinoline-3carboxylic acid], the concentration at 0.5 h in data set [1] (after 30 min., read-out: Concentration in plasma) amounted to 11800 ± 1100 ng/mL; in data set [4] (after 30 min., read-out: Concentration in serum), 12200 ± 2500 ng/mL. Also, the concentration at 1 h was 14200 ± 800 ng/mL in data set [1] (after 60 min., read-out: Concentration in plasma) and 5400 ± 600 ng/mL in data set [4] (after 60 min., read-out: Concentration in serum). The concentration at 2 h was 7800 ± 300 ng/mL in data set [1] (after 120 min., read-out: Concentration in plasma) and 3500 ± 600 ng/mL in data set [4] (after 120 min., read-out: Concentration in serum). Besides, the concentration at 4 h in data set [1] (after 240 min., read-out: Concentration in plasma) amounted to 5000 ± 300 ng/mL; in data set [4] (after 240 min., read-out: Concentration in serum) it was 2300 ± 200 ng/mL. In addition, the exposure (AUC) at 4 h turned out to be 33200 ng·h/mL in data set [1] (plasma, 1-4 hrs.) and 17800 ng·h/mL in data set [4] (serum, 1-4 hrs.). Besides, the LD50 at 168 h in the data set “in vivo [2]” is above 4000 mg/kg; in the data set “in vivo [5]”, 555 mg/kg. This molecule also came in with an MIC in data set [3] of 0.39 µg/mL (≈ 1.17 µM).
